From article PMC7819943, “Rice protein-binding microarrays: a tool to detect cis-acting elements near promoter regions in rice” come the findings set out here.

Sequences of proteins named here, by UniProt entry; tags and fusion partners are left off.
UniProt Q0JBA9, entry or part of it: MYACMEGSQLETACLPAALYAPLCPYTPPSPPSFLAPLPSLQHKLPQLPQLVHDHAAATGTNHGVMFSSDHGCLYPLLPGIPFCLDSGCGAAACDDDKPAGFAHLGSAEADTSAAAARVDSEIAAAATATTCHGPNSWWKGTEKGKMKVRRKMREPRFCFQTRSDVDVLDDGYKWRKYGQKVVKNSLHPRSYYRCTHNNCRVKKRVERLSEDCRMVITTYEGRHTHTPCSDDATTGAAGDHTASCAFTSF

The other results are listed elsewhere or left out.

The experiment addresses OsWRKY34 (Oryza sativa, UniProt Q0JBA9 1-250). Kind of experiment: protein-binding microarray (RPBM); PBS, 2% BSA, 51.3 ng/ul salmon testes DNA, 50 uM zinc acetate, 200 nM TF, 25 C, 1 h; high values mean tight binding. The following applies: protein: recombinant; tags: N-terminal polyhistidine and DsRed monomer fusion (pET32a); label: CyDye5-dUTP incorporated in the synthesized complementary strand; 3' TTTTT single-stranded linker to array surface; dsDNA, one strand shown. In short, it runs like this: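 Per-feature fluorescence intensity (arbitrary units), read on an Axon 4000B scanner, is the binding signal. Transcription factors carrying an N-terminal polyhistidine tag and DsRed fusion were expressed in E. coli BL21-CodonPlus and purified on Ni–NTA. A custom Agilent array, made double-stranded by primer extension with Cy5-dUTP and blocked with 2% BSA, was incubated with 200 nM protein in PBS, 2% BSA, salmon testes DNA and 50 µM zinc acetate at 25 °C for 1 h and then washed.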
In the case of “AGGGGATTGACAATTCGACATTGGCCAACTCTTTATCTGTCGGAGTCACCTAGTGCAG”, the binding signal is 8500 fluorescence intensity (a.u.).
In the case of “GACAGGTGGGAAAAATGAATGGTGAATAGTTGTGATTGGTCGGAGTCACCTAGTGCAG” it was 10200 fluorescence intensity (a.u.); in that of “ATGCAGATGTCATCTCATCTCATCTCATCTCTATCCAATTCGGAGTCACCTAGTGCAG”, 8190 fluorescence intensity (a.u.).
As to “TAAGCTGTTTCTCTTGATACTCGATCTACATCTTTTCCCTCGGAGTCACCTAGTGCAG”, the binding signal is 9340 fluorescence intensity (a.u.).
In the case of “CCGGGTGGAGGGCGGGGAAGCGGCGGCGGAACTCCGGGCTCGGAGTCACCTAGTGCAG” it was 8490 fluorescence intensity (a.u.).
In the case of “ATGGGTTGCTGGTGCTGTGGGGACGACAGGGTGGAGTCTACGGAGTCACCTAGTGCAG” it was 9520 fluorescence intensity (a.u.).
In the case of “TCCGTCTTCTCCTCCTGCTCCTTGATGCGCTCGCCGCTGACGGAGTCACCTAGTGCAG” it was 8420 fluorescence intensity (a.u.); in that of “CCAAAACACCCACTGCCTACCCGTCGCCGCCCGCCGCCATCGGAGTCACCTAGTGCAG”, 8420 fluorescence intensity (a.u.); in that of “GCCCTATGTATATTTAGCTCAAATGTTGCTAACTTATATACGGAGTCACCTAGTGCAG”, 9870 fluorescence intensity (a.u.).
On to “TTTTTAAGGTTAACTGTCAACTACTCGCATTTCTCATATACGGAGTCACCTAGTGCAG”, for which the binding signal is 8280 fluorescence intensity (a.u.).
As to “GCAAACTGCGGCCACCCTTTTATCACACAAATTTTTGACACGGAGTCACCTAGTGCAG”, the binding signal was 8040 fluorescence intensity (a.u.).
In the case of “CTGCTTCGGTCGTCGGCCGCCTGTCCCGCTCAACCGGCCGCGGAGTCACCTAGTGCAG” it was 10600 fluorescence intensity (a.u.).
The result for “CGCCTTCTCCGCCTTCGTCAGCAGCCGCAGCTTCTCCACGCGGAGTCACCTAGTGCAG” reads 8860 fluorescence intensity (a.u.); that for “ATATATGTATTTTAAGAATTTAAGCACAGTTGACTTTTTTCGGAGTCACCTAGTGCAG”, 8550 fluorescence intensity (a.u.).
As to “TTTTCAGCCTTTACTTTTAGATCGTTAAAAACACGTATATCGGAGTCACCTAGTGCAG”, the binding signal is 8300 fluorescence intensity (a.u.).
In the case of “ATAAATTAGGTACTACCTATATGATCTTTTTTTCCATTTTCGGAGTCACCTAGTGCAG” it was 8310 fluorescence intensity (a.u.); in that of “GCAGATTCGCAGTCTTCAGTACCCGTTTAACCGTTCACAACGGAGTCACCTAGTGCAG”, 8540 fluorescence intensity (a.u.).
On to “ACGCGAGCCGGCATGTATGGGTTGGGTGGGGAGCAGGCGGCGGAGTCACCTAGTGCAG”, for which the binding signal was 11600 fluorescence intensity (a.u.).
The result for “TCTCAGTTTTTTCTTTGTTGATTTACTGACCAAATTCTTTCGGAGTCACCTAGTGCAG” reads 8320 fluorescence intensity (a.u.); that for “TCAAATTCTTGCGTGTCCATGTCACTACCCTTTTGTAACTCGGAGTCACCTAGTGCAG”, 11200 fluorescence intensity (a.u.).
Regarding “GATCTACTGCTTGCTGCTGCTGCTACTAGCGTCTTCTTTCCGGAGTCACCTAGTGCAG”, the binding signal is 10000 fluorescence intensity (a.u.).
The result for “TCTCTCTCTTTCTGTCCATTTCTATCTGTGCTCTCGCCTGCGGAGTCACCTAGTGCAG” reads 8090 fluorescence intensity (a.u.); that for “AACTTCCGTCCTTTTCCATCACATCAACGTGTCATACACACGGAGTCACCTAGTGCAG”, 10800 fluorescence intensity (a.u.).
For the sequence “GTCGTCTCGGTTCATCGTCAACTCAGCTCCTCTCTTTCTTCGGAGTCACCTAGTGCAG”, the binding signal is 8080 fluorescence intensity (a.u.).
The result for “AACCGGACTGGTTTCTCTTACGTGGCTCCCTTTACATTACCGGAGTCACCTAGTGCAG” reads 8510 fluorescence intensity (a.u.).
The result for “TTCTAAGCCAGATTGTGACAGTAAACCTCCTAATAATTTTCGGAGTCACCTAGTGCAG” reads 8290 fluorescence intensity (a.u.); that for “CAATGATCATTCTGTTTACACTGACGTACCAGCAGACCAACGGAGTCACCTAGTGCAG”, 8670 fluorescence intensity (a.u.).
In the case of “AGGTTGCCAGCGTGTGGGGTGGGTTATTTTCGTGTGCGGGCGGAGTCACCTAGTGCAG” it was 11100 fluorescence intensity (a.u.); in that of “CCCGACCCACATCCTTCGCTGCACAGAGCATGCAGCATCTCGGAGTCACCTAGTGCAG”, 9020 fluorescence intensity (a.u.); in that of “TACATTTATATTCGCTTCTGCTGCAGCAAAGTCACCATCTCGGAGTCACCTAGTGCAG”, 9210 fluorescence intensity (a.u.).
Turning to “ATTTTGCTTTTCAGATTTTCCACAATACTGTCTCACTCAGCGGAGTCACCTAGTGCAG”, the binding signal is 8140 fluorescence intensity (a.u.).
In the case of “GCCTTGTATATTAGTGGTCATGCTCATGGTCATTTTATTGCGGAGTCACCTAGTGCAG” it was 8580 fluorescence intensity (a.u.).
Turning to “CCAGGCCCATCACTTGCGTTGTGTGTTAATCCACCGTATCCGGAGTCACCTAGTGCAG”, the binding signal is 11800 fluorescence intensity (a.u.).
With “TCATCACCCACACACCAAGCAAGCACTCACTCTCTCTTGCCGGAGTCACCTAGTGCAG”, the binding signal is 8650 fluorescence intensity (a.u.).
In the case of “CCATCGCTGCGGGTTCCCAGCCACTTTTGGAACTCCTCCTCGGAGTCACCTAGTGCAG” it was 8410 fluorescence intensity (a.u.); in that of “CCGCCGCTGTGCGCCTCGCCTCTCCGTCGACCGTGCCGCCCGGAGTCACCTAGTGCAG”, 10100 fluorescence intensity (a.u.).
For “CTACAAGCTATCAGTCTTCCTATGAACCGTATCTCCGGACCGGAGTCACCTAGTGCAG”, the binding signal is 8520 fluorescence intensity (a.u.).
The result for “CGGTGGGCCAGCCACACGCCTTCAACCTCTGAACCACCACCGGAGTCACCTAGTGCAG” reads 8140 fluorescence intensity (a.u.); that for “CGGCGGAGGAGGAGGAGGAGGGGTGGGGAAGAAGAGGGGACGGAGTCACCTAGTGCAG”, 22800 fluorescence intensity (a.u.).
The result for “CCGCATCATCGTTTGGCTTGGATCCGCATCACTGATTCACCGGAGTCACCTAGTGCAG” reads 8270 fluorescence intensity (a.u.); that for “GAGCCCATTGTGAAATCTGTTTTGTACCCTTAGTCATCGTCGGAGTCACCTAGTGCAG”, 10200 fluorescence intensity (a.u.); that for “TCACGACGAAGATTTGTCACATTTTCTTGCTTCATTGACTCGGAGTCACCTAGTGCAG”, 8590 fluorescence intensity (a.u.).
